{"sequences": {"note": "The chains behind the UniProt entries cited, without tags or fusion partners.", "UniProt P07949, whole entry M918T, looked up": "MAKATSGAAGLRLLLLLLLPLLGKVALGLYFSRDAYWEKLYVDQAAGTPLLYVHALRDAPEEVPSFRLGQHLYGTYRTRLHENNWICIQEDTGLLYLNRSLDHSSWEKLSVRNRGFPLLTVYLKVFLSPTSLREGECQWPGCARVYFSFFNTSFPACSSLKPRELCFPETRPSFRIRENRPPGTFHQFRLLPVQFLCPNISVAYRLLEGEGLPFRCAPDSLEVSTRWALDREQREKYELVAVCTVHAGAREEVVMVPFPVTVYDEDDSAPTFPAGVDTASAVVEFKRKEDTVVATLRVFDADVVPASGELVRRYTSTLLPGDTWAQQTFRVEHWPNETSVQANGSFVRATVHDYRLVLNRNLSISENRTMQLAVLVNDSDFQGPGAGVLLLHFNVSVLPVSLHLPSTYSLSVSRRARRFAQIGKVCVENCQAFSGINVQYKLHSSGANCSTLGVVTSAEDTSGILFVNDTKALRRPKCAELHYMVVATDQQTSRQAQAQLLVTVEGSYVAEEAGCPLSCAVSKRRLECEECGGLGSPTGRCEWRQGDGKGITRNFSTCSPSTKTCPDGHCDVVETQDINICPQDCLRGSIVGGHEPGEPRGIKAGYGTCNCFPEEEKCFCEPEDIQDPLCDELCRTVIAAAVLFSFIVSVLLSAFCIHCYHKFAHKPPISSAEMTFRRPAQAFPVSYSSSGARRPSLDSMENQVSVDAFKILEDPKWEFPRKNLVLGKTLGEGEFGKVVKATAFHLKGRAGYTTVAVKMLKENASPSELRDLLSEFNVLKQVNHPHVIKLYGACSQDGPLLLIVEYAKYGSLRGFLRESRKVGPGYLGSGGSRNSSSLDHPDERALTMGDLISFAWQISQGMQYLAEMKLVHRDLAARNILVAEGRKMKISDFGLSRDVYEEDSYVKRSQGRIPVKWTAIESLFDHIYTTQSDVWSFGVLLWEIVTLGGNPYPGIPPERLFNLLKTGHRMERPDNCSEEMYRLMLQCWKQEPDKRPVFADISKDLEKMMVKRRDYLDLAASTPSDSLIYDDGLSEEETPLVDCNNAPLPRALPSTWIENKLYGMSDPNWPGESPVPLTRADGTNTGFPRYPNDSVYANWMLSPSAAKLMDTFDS"}, "source": "the supplement of paper PMC12823440", "about": "“Inhibitors supercharge kinase turnover through native proteolytic circuits” (Nature, 2025)", "note": "This is one part of the list. The calls rarely recur for the same compound in another form.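 In K562 cells expressing nanoluciferase-fused kinases, luminescence was recorded at 4 h intervals between 2 and 18 h, normalized as percent of control with DMSO at 100% and a positive control at 0%. A significant (2 sigma) signal drop marks a time point as decreased. The authors' rule for a hit is not shown and takes in more than the number of time points.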", "data": [{"target": "RET_M918T (clone: RET_mut) (UniProt P07949)", "test": "number of time points (of 5) at which kinase-Nluc abundance scored as decreased, DMSO-normalised (count); higher = more persistent destabilization", "conditions": "K562; 2-18 h", "values": [{"smiles": "C[C@H]1CC[C@]2(NC1)O[C@H]1C[C@H]3[C@@H]4CC[C@H]5C[C@@H](O[C@@H]6O[C@H](CO)[C@H](O[C@@H]7O[C@H](CO)[C@@H](O)[C@H](O[C@@H]8OC[C@@H](O)[C@H](O)[C@H]8O)[C@H]7O[C@@H]7O[C@H](CO)[C@@H](O)[C@H](O)[C@H]7O)[C@H](O)[C@H]6O)CC[C@]5(C)[C@H]4CC[C@]3(C)[C@H]1[C@@H]2C", "note": "[Tomatine] (2.5 µM)", "number of time points": 0}, {"smiles": "CCCCNc1nc(N)c2[nH]c(=O)n(Cc3ccc(C)nc3)c2n1", "note": "(10 µM)", "number of time points": 0}, {"smiles": "C[C@H](CCC(=O)O)C[C@H](C)C[C@H](C)C(=O)/C=C(\\O)[C@H](C)C[C@H](C)C/C=C/[C@@H](C)[C@@H](O)[C@@H](C)[C@@H](O)C[C@@H]1CC[C@@](C)([C@H]2CC[C@@](C)([C@@H](C)O)O2)O1", "note": "[Ionomycin (calcium)] (2.5 µM)", "number of time points": 0}, {"smiles": "CCOC(=O)c1c(/C(C#N)=C\\N)c2ccc(Cl)c(Cl)c2n1C", "note": "(10 µM)", "number of time points": 0}, {"smiles": "CC(=O)OC(C)(C)/C=C/C(=O)[C@](C)(O)[C@H]1[C@H](O)C[C@@]2(C)[C@@H]3CC=C4[C@@H](C=C(O)C(=O)C4(C)C)[C@]3(C)C(=O)C[C@]12C", "note": "[Cucurbitacin E] (2.5 µM)", "number of time points": 1}, {"smiles": "O=C1C=CC[C@@H]2[C@H]3CCCN4CCC[C@@H](CN12)[C@@H]34", "note": "[Sophocarpine (monohydrate)] (2.5 µM)", "number of time points": 0}, {"smiles": "C=CC(=O)Nc1ccc2[nH]c(=O)n(C3CCN(Cc4ccc(-c5nc6cc[nH]c(=O)c6cc5-c5ccccc5)cc4)CC3)c2c1", "note": "[Borussertib] (10 µM)", "number of time points": 0}]}]}
